The values below come from publication PMC4574971.

Results are given in words; binding and its absence hold for the method and conditions named. Binding seen in cells or lysates may run through a third protein. Binding calls can cover weak binding; strength is not graded here.

Assay [1] has as its target dystrophin 71d (rat (endogenous in cultured hippocampal neurons)). Kind of assay: co-IP; nucleoskeleton fraction (1 mg) of cultured rat hippocampal neurons, precleared, incubated overnight at 4°C with Dys-2 (Dp71d) or 5F3 (Dp71f) Ab bound to protein G-agarose; washed three times with RIPA buffer; western blot; anti-CD4 Ab as unrelated control. On the technique in general: Immunoblotting shows a protein as a band on a membrane.

Assay [2] concerns the target dystrophin 71f (rat (endogenous in cultured hippocampal neurons)). Described as above.

B1: β-dystrobrevin (protein, UniProt P84060 1-654)
chain: MIEEGGNKRKTMAEKRQLFIEMRAQNFDVIRLSTYRTACKLRFVQKRCNLHLVDIWNMIEAFRDNGLNTLDHATEISVSRLETVISSIYYQLNKRLPSTHQINVEQSISLLLNFMIAAYDSEGRGKLTVFSVKAMLATMCGGKMLDKLRYIFSQMSDSNGLMMFGKLDQFLKEALKLPTAVFEGPSFGYTEHAVRTCFPQQKKIMLNMFLDTMMADPPPQCLVWLPLMHRLAHVENVFHPVECSYCHCESMMGFRYRCQQCHNYQLCQNCFWRGHAGGPHSNQHQMKELSSWKSPAKKLSHAISKSLGCVPSREPPHPVFPEQPEKPLDLAHIVPPRPLTNMNDTMVSHMSSGVPTPTKRLQYGQDMPNLLADEHALIASYVARLQHCTRVLDSPSRLDEEHRLIARYAARLAAEAGNMTRPPTDASFNFDANKQQRQLIAELENKNREILQEIQRLRLEHEQASQPTPEKAQQNPTLLAELRLLRQRKDELEQRMSALQESRRELMVQLEGLMKLLKAQATGSPHTSPTHGGGRSMPMPVRSTSAGSTPTHGPQDSLSGVGGDVQEAFAQGTRRNLRNDLLVAADSITNTMSSLVKELHSGETQRFPLVSSSPSCPLPCPTIPTHSPSFHATFPSRNTRDLHPVPPSHMVSLY
As to B1, the binding result in assay [1] and in assay [2] was “binds” in each case.
